Results are given in words; binding and its absence hold for the method and conditions named. Binding can be weak; no strength is given.
Molecular target: T1, A. aeolicus HypD (Aquifex aeolicus) (UniProt O67225)
T1 sequence: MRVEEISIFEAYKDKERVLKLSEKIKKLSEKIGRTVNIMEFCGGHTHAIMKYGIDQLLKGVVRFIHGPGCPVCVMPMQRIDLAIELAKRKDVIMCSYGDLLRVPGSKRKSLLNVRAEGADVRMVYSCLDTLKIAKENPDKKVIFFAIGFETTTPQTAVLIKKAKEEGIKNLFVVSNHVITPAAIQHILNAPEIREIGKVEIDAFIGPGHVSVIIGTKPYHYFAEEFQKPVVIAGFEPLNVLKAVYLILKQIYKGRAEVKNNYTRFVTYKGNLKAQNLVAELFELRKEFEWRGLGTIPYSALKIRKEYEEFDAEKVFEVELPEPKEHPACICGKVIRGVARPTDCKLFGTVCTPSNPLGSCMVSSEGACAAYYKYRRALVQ
Assay: SEC; Superdex75 10/300GL, 50 mM Tris-HCl (pH 8.0), 200 mM NaCl, 1 mM DTT; HypC alone, HypD alone, and HypC and HypD mixed in equal molar amount; apparent masses; both purified

binding: binds
Substance: A. aeolicus HypC (Aquifex aeolicus)

Source: article PMC6802093, “Structural characterization of HypX responsible for CO biosynthesis in the maturation of NiFe-hydrogenase” (Communications Biology, 2019)
